Results taken from the supplement of paper PMC10849652.
The list shows a part of the results.

By UniProt entry, the sequences of proteins in these tests, tags left out. Where a name states a change or a piece, a line headed by the entry shows the natural chain unless it says otherwise.
UniProt Q00059: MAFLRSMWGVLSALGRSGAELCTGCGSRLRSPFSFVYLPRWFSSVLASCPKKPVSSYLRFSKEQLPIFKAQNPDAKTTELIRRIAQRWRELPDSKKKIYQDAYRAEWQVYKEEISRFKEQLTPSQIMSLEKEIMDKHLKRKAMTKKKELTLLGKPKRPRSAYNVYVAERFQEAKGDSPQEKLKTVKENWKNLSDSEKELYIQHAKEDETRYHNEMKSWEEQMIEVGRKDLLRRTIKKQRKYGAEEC
UniProt Q15582: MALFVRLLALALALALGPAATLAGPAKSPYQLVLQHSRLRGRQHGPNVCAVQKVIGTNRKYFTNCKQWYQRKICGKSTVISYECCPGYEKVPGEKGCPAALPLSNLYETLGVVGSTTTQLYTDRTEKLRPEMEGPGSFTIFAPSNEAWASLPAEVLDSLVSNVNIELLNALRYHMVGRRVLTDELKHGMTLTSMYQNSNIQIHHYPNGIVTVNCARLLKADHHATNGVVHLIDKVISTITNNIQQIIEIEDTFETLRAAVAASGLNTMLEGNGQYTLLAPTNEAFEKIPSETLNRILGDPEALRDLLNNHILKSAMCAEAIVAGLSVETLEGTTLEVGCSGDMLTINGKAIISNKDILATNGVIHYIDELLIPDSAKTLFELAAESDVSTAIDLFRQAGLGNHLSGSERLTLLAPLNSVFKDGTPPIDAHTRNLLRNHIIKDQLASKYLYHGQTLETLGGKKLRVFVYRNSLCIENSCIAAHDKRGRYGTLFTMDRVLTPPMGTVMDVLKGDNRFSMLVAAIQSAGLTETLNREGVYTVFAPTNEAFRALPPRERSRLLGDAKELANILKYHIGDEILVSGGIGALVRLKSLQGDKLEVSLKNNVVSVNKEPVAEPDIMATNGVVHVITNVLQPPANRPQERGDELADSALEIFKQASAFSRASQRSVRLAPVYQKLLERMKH
UniProt P07996: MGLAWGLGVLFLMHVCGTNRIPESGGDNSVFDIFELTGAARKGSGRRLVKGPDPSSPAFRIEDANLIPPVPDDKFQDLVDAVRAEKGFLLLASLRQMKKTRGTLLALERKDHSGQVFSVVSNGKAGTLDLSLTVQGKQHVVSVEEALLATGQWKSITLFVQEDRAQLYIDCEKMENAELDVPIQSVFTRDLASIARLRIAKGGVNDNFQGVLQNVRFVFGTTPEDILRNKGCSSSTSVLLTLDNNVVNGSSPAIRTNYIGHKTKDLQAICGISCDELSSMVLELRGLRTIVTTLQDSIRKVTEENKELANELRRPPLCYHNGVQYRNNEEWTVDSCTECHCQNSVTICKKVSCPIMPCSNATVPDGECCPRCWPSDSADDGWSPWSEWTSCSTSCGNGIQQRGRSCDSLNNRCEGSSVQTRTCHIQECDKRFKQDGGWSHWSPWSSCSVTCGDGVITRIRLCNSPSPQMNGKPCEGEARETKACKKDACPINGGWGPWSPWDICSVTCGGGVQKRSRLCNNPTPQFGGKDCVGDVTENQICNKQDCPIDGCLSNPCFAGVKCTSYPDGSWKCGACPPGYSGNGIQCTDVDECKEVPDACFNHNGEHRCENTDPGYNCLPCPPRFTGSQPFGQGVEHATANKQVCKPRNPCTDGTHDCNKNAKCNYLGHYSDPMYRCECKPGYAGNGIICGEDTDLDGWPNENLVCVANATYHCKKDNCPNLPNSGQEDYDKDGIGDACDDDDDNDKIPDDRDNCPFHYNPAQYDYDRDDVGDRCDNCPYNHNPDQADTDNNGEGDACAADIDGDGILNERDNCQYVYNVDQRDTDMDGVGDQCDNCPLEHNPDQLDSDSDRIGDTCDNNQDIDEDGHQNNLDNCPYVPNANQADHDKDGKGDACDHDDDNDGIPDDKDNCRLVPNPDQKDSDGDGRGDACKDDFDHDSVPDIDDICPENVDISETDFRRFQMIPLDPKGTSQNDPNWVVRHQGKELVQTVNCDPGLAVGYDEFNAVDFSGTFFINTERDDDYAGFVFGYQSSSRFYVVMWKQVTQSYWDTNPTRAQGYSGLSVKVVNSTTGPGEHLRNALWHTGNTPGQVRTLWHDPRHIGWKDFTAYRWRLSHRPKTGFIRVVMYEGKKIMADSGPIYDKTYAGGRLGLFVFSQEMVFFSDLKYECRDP
UniProt Q9BSF4: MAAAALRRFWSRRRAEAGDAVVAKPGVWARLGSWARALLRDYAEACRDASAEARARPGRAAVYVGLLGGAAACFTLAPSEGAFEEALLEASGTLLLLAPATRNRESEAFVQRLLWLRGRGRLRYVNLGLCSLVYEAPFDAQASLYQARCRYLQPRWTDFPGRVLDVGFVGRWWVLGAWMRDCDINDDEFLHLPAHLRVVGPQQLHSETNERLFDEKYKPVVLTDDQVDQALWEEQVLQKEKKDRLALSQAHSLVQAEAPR
UniProt Q9Y4C2: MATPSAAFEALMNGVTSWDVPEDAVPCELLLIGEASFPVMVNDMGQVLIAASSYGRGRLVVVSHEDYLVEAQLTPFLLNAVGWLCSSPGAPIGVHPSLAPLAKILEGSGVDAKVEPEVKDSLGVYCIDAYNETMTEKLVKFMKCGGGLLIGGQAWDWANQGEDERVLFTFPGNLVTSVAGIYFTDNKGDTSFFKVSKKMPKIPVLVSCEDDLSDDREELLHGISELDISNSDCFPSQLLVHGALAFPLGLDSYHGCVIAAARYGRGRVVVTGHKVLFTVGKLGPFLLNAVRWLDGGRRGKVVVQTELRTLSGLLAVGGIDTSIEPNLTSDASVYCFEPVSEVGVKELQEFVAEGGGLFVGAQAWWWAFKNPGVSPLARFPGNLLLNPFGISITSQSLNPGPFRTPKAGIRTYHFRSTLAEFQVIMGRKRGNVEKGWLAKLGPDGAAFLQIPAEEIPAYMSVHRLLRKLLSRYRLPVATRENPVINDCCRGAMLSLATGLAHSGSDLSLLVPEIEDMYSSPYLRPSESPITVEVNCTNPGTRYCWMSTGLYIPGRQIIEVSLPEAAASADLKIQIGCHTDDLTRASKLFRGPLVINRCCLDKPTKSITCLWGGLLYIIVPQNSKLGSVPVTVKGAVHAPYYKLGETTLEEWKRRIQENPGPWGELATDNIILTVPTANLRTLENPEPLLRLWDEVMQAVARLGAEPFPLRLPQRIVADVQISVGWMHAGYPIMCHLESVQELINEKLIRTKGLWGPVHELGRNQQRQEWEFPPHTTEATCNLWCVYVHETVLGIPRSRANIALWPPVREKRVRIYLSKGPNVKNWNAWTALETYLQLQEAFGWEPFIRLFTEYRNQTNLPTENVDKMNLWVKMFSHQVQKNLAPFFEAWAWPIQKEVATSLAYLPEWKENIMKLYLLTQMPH
UniProt Q9Y584: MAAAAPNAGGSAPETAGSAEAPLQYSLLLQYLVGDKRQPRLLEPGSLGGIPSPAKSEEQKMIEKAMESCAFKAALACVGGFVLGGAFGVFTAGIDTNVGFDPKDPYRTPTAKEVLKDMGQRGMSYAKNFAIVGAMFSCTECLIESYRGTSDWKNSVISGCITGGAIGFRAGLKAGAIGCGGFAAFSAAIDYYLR
UniProt Q15813: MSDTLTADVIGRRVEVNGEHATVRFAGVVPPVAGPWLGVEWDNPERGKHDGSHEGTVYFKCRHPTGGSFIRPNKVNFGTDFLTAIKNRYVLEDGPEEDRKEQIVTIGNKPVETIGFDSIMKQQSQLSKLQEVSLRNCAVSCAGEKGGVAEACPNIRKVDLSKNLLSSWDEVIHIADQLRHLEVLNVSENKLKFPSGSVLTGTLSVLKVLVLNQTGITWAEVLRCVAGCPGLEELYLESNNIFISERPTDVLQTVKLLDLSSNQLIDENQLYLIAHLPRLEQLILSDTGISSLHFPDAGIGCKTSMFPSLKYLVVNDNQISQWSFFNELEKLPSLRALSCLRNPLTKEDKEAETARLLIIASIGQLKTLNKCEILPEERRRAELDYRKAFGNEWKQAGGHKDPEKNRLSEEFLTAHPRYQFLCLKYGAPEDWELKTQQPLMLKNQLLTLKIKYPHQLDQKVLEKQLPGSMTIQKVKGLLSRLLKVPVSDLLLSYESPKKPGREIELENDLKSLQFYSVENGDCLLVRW
UniProt Q9Y5J9: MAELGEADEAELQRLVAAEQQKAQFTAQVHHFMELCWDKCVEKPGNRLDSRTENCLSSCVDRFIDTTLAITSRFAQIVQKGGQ
UniProt Q8WUY1: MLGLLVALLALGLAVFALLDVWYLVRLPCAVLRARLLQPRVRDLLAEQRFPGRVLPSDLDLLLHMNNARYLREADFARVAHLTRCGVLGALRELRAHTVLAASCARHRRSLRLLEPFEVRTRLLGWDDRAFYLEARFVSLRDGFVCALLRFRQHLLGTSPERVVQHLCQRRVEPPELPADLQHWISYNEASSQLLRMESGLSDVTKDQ
UniProt Q96BS2: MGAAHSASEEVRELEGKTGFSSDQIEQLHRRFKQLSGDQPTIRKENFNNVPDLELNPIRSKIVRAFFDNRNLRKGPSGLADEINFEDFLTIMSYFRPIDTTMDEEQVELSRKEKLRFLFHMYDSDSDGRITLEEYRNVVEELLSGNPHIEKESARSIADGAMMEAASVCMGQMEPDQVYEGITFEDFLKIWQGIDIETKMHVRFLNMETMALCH
UniProt Q9BV44: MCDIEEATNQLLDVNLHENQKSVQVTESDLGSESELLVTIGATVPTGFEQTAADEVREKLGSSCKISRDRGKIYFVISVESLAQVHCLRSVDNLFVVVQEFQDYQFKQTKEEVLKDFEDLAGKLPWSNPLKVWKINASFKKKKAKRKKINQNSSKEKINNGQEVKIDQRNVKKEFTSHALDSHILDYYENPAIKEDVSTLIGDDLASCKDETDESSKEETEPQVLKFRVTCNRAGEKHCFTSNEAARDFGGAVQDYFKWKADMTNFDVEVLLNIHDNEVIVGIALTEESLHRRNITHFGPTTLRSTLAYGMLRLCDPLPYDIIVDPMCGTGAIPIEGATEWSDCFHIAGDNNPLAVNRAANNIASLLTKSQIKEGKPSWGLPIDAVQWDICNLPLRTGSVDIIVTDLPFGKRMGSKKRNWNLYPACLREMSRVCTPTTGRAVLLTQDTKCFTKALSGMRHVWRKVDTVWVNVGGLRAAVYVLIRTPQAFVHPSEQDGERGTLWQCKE
UniProt Q9BZK7: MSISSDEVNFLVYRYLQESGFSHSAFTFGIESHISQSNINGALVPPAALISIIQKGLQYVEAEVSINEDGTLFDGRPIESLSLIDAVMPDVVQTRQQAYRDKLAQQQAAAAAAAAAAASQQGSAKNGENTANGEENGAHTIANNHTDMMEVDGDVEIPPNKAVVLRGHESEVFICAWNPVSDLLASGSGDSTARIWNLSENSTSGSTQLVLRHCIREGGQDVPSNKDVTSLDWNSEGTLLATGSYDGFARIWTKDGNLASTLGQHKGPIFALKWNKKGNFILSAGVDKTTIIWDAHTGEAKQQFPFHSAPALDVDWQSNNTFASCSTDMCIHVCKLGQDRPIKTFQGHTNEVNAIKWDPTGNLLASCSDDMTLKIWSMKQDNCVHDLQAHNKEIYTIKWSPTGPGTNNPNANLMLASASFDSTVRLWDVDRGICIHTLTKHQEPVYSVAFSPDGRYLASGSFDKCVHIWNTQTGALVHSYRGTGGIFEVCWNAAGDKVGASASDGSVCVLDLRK
UniProt O43493: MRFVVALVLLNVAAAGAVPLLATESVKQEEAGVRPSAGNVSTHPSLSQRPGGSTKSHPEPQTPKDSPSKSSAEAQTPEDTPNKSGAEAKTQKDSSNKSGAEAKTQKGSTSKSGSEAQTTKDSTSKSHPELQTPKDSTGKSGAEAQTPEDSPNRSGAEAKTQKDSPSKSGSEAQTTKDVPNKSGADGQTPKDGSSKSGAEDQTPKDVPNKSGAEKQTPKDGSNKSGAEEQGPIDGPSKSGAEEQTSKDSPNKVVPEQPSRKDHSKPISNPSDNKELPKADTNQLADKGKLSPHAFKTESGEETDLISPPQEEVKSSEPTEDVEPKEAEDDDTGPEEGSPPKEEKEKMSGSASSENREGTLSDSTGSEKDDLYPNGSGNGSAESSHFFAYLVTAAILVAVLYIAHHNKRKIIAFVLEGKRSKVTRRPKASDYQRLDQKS
UniProt P17987, whole entry, looked up: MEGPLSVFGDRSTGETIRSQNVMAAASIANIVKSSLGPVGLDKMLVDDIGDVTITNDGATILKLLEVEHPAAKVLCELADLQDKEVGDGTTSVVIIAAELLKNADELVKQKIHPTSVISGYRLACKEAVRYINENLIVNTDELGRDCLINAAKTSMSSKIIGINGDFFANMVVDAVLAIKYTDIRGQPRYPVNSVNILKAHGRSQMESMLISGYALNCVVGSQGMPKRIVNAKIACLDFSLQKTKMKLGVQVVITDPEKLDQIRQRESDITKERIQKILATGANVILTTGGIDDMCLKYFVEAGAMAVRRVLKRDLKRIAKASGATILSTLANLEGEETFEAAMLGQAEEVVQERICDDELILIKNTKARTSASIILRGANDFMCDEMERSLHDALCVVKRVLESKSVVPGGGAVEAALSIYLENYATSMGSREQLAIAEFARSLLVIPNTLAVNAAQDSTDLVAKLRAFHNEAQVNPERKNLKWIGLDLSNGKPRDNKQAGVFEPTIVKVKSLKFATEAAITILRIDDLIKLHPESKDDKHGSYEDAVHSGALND

Experiments:
Experiment in all cases: log2 fold change, soluble protein after heating vs DMSO (PISA); higher = thermal stabilisation; K562 cells, 10 uM, 30 min; active = over 0.2 and 3.5 SD of the protein, either way, in both replicates (recomputed)
[1] = compound: NC(=O)Nc1cc(-c2cccc(F)c2)sc1C(=O)N[C@H]1CCCNC1
Summary of the method: (§1)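 K562 cells at 2×10^6 cells/mL were treated with 10 μM compound for 30 min. Aliquots were heated for 3 min across 48°C-58°C, pooled, and extracted in PBS with 0.5% NP-40 at 4°C; soluble protein was the supernatant after 21,000xg for 90 min. Soluble protein was quantified by TMTpro 16plex LC-MS/MS with channel sums equalised, and reported as log2 fold change in thermal stability against DMSO controls, with values from duplicates.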

[2] = compound: NC(=O)c1cnc(N[C@@H]2CCCC[C@@H]2N)nc1Nc1cccc(-n2nccn2)c1
Summary of the method: as §1

[3] = compound: NC1(c2ccc(-c3nc4ccn5c(=O)[nH]nc5c4cc3-c3ccccc3)cc2)CCC1
Summary of the method: as §1

[4] = compound: NCC(=O)Nc1ccc(-n2nc(C(F)(F)F)cc2-c2ccc3c(ccc4ccccc43)c2)cc1
Summary of the method: as §1

entinostat = compound: Nc1ccccc1NC(=O)c1ccc(CNC(=O)OCc2cccnc2)cc1 [entinostat]
Summary of the method: as §1

vorinostat = compound: O=C(CCCCCCC(=O)Nc1ccccc1)NO [vorinostat]
Summary of the method: as §1

citarinostat = compound: O=C(CCCCCCNC(=O)c1cnc(N(c2ccccc2)c2ccccc2Cl)nc1)NO [citarinostat]
Summary of the method: as §1

silmitasertib = compound: O=C(O)c1ccc2c(c1)nc(Nc1cccc(Cl)c1)c1ccncc12 [silmitasertib]
Summary of the method: as §1

[5] = compound: O=C1NC(=O)C(c2cnc3ccccn23)=C1c1cn2c3c(cc(F)cc13)CN(C(=O)N1CCCCC1)CC2
Summary of the method: as §1

[6] = compound: c1cc(OCCN2CCCCC2)cc(-c2n[nH]c3ccc(-c4nnc[nH]4)cc23)c1
Summary of the method: as §1

entospletinib = compound: c1cn2cc(-c3ccc4cn[nH]c4c3)nc(Nc3ccc(N4CCOCC4)cc3)c2n1 [entospletinib]
Summary of the method: as §1

Measured: log2 fold change

TJP1 (UniProt Q07157)
inactive: [1] -0.043 | [2] -0.067 | [3] 0.033 | [4] -0.071 | entinostat 0.044 | vorinostat 0.049 | citarinostat 0.041 | silmitasertib -0.158 | [5] -0.056 | [6] -0.092

TBC1D15 isoform 3 (UniProt Q8TC07)
inactive: [1] -0.013 | [2] -0.086 | [3] -0.202 | [4] -0.033 | entinostat 0.118 | vorinostat 0.101 | citarinostat 0.036 | silmitasertib 0.071 | [5] -0.008 | [6] -0.059

TFAM (UniProt Q00059)
inactive: [1] -0.079 | [2] -0.006 | [3] 0.085 | [4] 0.011 | entinostat -0.035 | vorinostat 0.005 | citarinostat -0.151 | silmitasertib 0.011 | [5] 0.06 | [6] -0.115

TCOF1 isoform 4 (UniProt Q13428)
inactive: [1] 0.131 | [2] -0.065 | [3] -0.014 | [4] -0.013 | entinostat -0.015 | vorinostat -0.026 | citarinostat -0.002 | silmitasertib 0.002 | [5] 0.045 | [6] -0.112

TGFBI (UniProt Q15582)
inactive: [1] -0.037 | [2] -0.136 | [3] -0.116 | [4] -0.116 | entinostat 0.056 | vorinostat 0.309 | citarinostat -0.056 | silmitasertib 0.114 | [5] -0.01 | [6] 0.202

THYN1 (UniProt Q9P016)
inactive: [1] 0 | [2] -0.011 | [3] -0.048 | [4] -0.103 | entinostat -0.004 | vorinostat 0.011 | citarinostat 0.008 | silmitasertib -0.011 | [5] -0.022 | [6] -0.034

TCERG1 (UniProt O14776)
inactive: [1] -0.026 | [2] -0.075 | [3] -0.123 | [4] -0.112 | entinostat 0.159 | vorinostat 0.129 | citarinostat 0.129 | silmitasertib 0.022 | [5] -0.153 | [6] 0

THBS1 (UniProt P07996)
inactive: [1] 0.003 | [2] 0.004 | [3] 0.001 | [4] 0.01 | entinostat -0.067 | vorinostat 0.156 | citarinostat -0.079 | silmitasertib 0.242 | [5] 0.045 | [6] 0.192 | entospletinib 0.176

TIMM29 (UniProt Q9BSF4)
inactive: [1] -0.16 | [2] -0.024 | [3] -0.069 | [4] -0.011 | entinostat -0.04 | vorinostat -0.093 | citarinostat -0.016 | silmitasertib 0.006 | [5] -0.08 | [6] -0.004

TELO2 (UniProt Q9Y4R8)
inactive: [1] -0.039 | [2] -0.1 | [3] -0.207 | [4] 0.037 | entinostat 0.039 | vorinostat 0.137 | citarinostat 0.009 | silmitasertib 0.067 | [5] 0.117 | [6] -0.075

TCAF1 (UniProt Q9Y4C2)
inactive: [1] -0.002 | [2] -0.051 | [3] -0.131 | [4] -0.07 | entinostat 0.024 | vorinostat 0.011 | citarinostat 0.049 | silmitasertib 0.104 | [5] -0.032 | [6] -0.096 | entospletinib 0.063

THEM4 (UniProt Q5T1C6)
inactive: [1] -0.043 | [2] -0.011 | [3] -0.044 | [4] 0.092 | entinostat -0.03 | vorinostat -0.081 | citarinostat 0.01 | silmitasertib -0.018 | [5] 0.011 | [6] -0.094 | entospletinib 0.026

TET1 (UniProt Q8NFU7)
inactive: [1] 0.023 | [2] -0.102 | [3] 0.048 | [4] -0.081 | entinostat -0.05 | vorinostat -0.019 | citarinostat 0.125 | silmitasertib -0.05 | [5] -0.034 | [6] 0.102 | entospletinib -0.224

TIMM22 (UniProt Q9Y584)
inactive: [1] 0.026 | [2] 0.271 | [3] 0 | [4] 0.303 | entinostat 0.004 | vorinostat -0.057 | citarinostat 0.006 | silmitasertib -0.031 | [5] -0.045 | [6] -0.027 | entospletinib 0.121

TFB1M (UniProt Q8WVM0)
inactive: [1] -0.132 | [2] 0.126 | [3] -0.107 | [4] 0.126 | entinostat -0.134 | vorinostat 0.008 | citarinostat -0.094 | silmitasertib 0.042 | [5] 0.237 | [6] -0.036 | entospletinib 0.132

TBCE (UniProt Q15813)
inactive: [1] -0.02 | [2] -0.094 | [3] 0.015 | [4] -0.075 | entinostat 0.054 | vorinostat 0.125 | citarinostat 0.008 | silmitasertib 0.179 | [5] 0.146 | [6] -0.115 | entospletinib 0.112

TIMM8B (UniProt Q9Y5J9)
inactive: [1] 0.176 | [2] 0.008 | [3] -0.097 | [4] 0.034 | entinostat 0.016 | vorinostat -0.593 | citarinostat 0.034 | silmitasertib -0.118 | [5] -0.045 | [6] 0.072 | entospletinib 0.05

TERF2 (UniProt Q15554)
inactive: [1] -0.071 | [2] -0.026 | [3] 0.142 | [4] 0.092 | entinostat 0.078 | vorinostat 0.098 | citarinostat 0.018 | silmitasertib 0.206 | [5] 0.061 | [6] -0.121 | entospletinib 0.078

TFDP1 (UniProt Q14186)
inactive: [1] 0.102 | [2] -0.136 | [3] -0.012 | [4] -0.083 | entinostat -0.094 | vorinostat 0.123 | citarinostat 0.022 | silmitasertib 0.101 | [5] 0.075 | [6] -0.12 | entospletinib 0.105

THEM6 (UniProt Q8WUY1)
inactive: [1] -0.059 | [2] -0.002 | [3] 0.18 | [4] 0 | entinostat 0.002 | vorinostat -0.05 | citarinostat 0.053 | silmitasertib 0.031 | [5] 0.02 | [6] 0.012 | entospletinib -0.024

TESC (UniProt Q96BS2)
inactive: [1] -0.059 | [2] -0.073 | [3] -0.003 | [4] 0.036 | entinostat -0.003 | vorinostat 0.04 | citarinostat 0.025 | silmitasertib 0.318 | [5] -0.088 | [6] -0.043 | entospletinib -0.044

THOC2 (UniProt Q8NI27)
inactive: [1] 0.039 | [2] 0.018 | [3] 0.043 | [4] -0.083 | entinostat 0.01 | vorinostat 0.002 | citarinostat 0.042 | silmitasertib 0.093 | [5] 0.029 | [6] -0.253 | entospletinib -0.034

THOC6 (UniProt Q86W42)
inactive: [1] -0.02 | [2] -0.021 | [3] 0.001 | [4] -0.032 | entinostat -0.029 | vorinostat 0.018 | citarinostat 0.042 | silmitasertib -0.007 | [5] -0.074 | [6] -0.056 | entospletinib -0.028

7 successive records out of the list so far:
TBCE (UniProt Q15813)
inactive: [1] -0.02 | [2] -0.094 | [3] 0.015 | [4] -0.075 | entinostat 0.054 | vorinostat 0.125 | citarinostat 0.008 | silmitasertib 0.179 | [5] 0.146 | [6] -0.115 | entospletinib 0.112

TIMM8B (UniProt Q9Y5J9)
inactive: [1] 0.176 | [2] 0.008 | [3] -0.097 | [4] 0.034 | entinostat 0.016 | vorinostat -0.593 | citarinostat 0.034 | silmitasertib -0.118 | [5] -0.045 | [6] 0.072 | entospletinib 0.05

TERF2 (UniProt Q15554)
inactive: [1] -0.071 | [2] -0.026 | [3] 0.142 | [4] 0.092 | entinostat 0.078 | vorinostat 0.098 | citarinostat 0.018 | silmitasertib 0.206 | [5] 0.061 | [6] -0.121 | entospletinib 0.078

TFDP1 (UniProt Q14186)
inactive: [1] 0.102 | [2] -0.136 | [3] -0.012 | [4] -0.083 | entinostat -0.094 | vorinostat 0.123 | citarinostat 0.022 | silmitasertib 0.101 | [5] 0.075 | [6] -0.12 | entospletinib 0.105

THEM6 (UniProt Q8WUY1)
inactive: [1] -0.059 | [2] -0.002 | [3] 0.18 | [4] 0 | entinostat 0.002 | vorinostat -0.05 | citarinostat 0.053 | silmitasertib 0.031 | [5] 0.02 | [6] 0.012 | entospletinib -0.024

TESC (UniProt Q96BS2)
inactive: [1] -0.059 | [2] -0.073 | [3] -0.003 | [4] 0.036 | entinostat -0.003 | vorinostat 0.04 | citarinostat 0.025 | silmitasertib 0.318 | [5] -0.088 | [6] -0.043 | entospletinib -0.044

THOC2 (UniProt Q8NI27)
inactive: [1] 0.039 | [2] 0.018 | [3] 0.043 | [4] -0.083 | entinostat 0.01 | vorinostat 0.002 | citarinostat 0.042 | silmitasertib 0.093 | [5] 0.029 | [6] -0.253 | entospletinib -0.034

The results go on.

THUMPD3 (UniProt Q9BV44)
inactive: [1] 0.026 | [2] -0.04 | [3] -0.033 | [4] 0.024 | entinostat 0.017 | vorinostat 0.028 | citarinostat 0.033 | silmitasertib 0.008 | [5] -0.055 | [6] -0.012 | entospletinib -0.011

TBL1XR1 (UniProt Q9BZK7)
inactive: [1] 0.06 | [2] 0.057 | [3] 0.03 | [4] -0.027 | entinostat -0.041 | vorinostat -0.022 | citarinostat 0 | silmitasertib -0.028 | [5] 0.123 | [6] -0.048 | entospletinib -0.019

TGOLN2 isoform 7 (UniProt O43493)
inactive: [1] 0.005 | [2] 0.005 | [3] 0.049 | [4] 0.01 | entinostat -0.021 | vorinostat -0.045 | citarinostat 0 | silmitasertib 0.02 | [5] -0.019 | [6] -0.036 | entospletinib 0.023

TCP1 (UniProt P17987)
inactive: [1] 0.023 | [2] 0.007 | [3] 0.011 | [4] 0.045 | entinostat -0.005 | vorinostat 0.03 | citarinostat 0.004 | silmitasertib -0.034 | [5] -0.007 | [6] -0.041 | entospletinib -0.035

THOC7 (UniProt Q6I9Y2)
inactive: [1] -0.025 | [2] 0.005 | [3] 0.032 | [4] -0.088 | entinostat 0.013 | vorinostat -0.006 | citarinostat 0.038 | silmitasertib 0.046 | [5] -0.058 | [6] -0.062 | entospletinib -0.055
